The data set deals with focal cerebral ischemia in male Long-Evans rats. In words: Focal cerebral ischemia (right distal MCA cauterization with temporary bilateral CCA occlusion, 90 min). Format: in vivo, rat. The settings on record: 10 mg/kg; laser Doppler; control 20.8±7.7.

`O=C1NCCc2c(OCCCCN3CCCCC3)cccc21` [DPQ, 3,4-dihydro-5-[4-(1-piperidinyl)-butoxy]-1(2H)-isoquinolinone]: the “relative blood flow in the right parietal cortex during occlusion, % of the baseline” value amounted to 1.4±7.7%.

Source of the values: patent publication US6545011B2, “Substituted 4,9-dihydrocyclopenta[imn]phenanthridine-5-ones, derivatives thereof and their uses” (Guilford Pharmaceuticals Inc., priority 2000, dated 2003).
